Values of other authors, collected in patent US7723320B2, “Use of estrogen compounds to increase libido in women” (Pantarhei Bioscience B.V., priority 2001, dated 2010).
Some results were stated once for a whole list of compounds, not compound by compound.

Test system: liver
Conditions: in vivo; cited from earlier work

For `CC/C(=C(/CC)c1ccc(O)cc1)c1ccc(O)cc1` [DES, diethylstilbestrol], the “activity in the liver relative to estrone sulfate, in relation to FSH-secretion inhibitory activity” value is listed as 4-18 times.
